Experimental data taken from PMC4752584, “The C repressor of the P2 bacteriophage” (Journal of Biomolecular Nmr, 2015).
Construct, isoform or probe ends are uncertain for at least one entry. At least one verdict was read from the data and is not stated in words by the source. Protein sequences can lack the tags named with them.

Biological target: T1, P2 C repressor (15N-labeled wild type) (Enterobacteria phage P2) (UniProt P04132)
T1 sequence (looked up): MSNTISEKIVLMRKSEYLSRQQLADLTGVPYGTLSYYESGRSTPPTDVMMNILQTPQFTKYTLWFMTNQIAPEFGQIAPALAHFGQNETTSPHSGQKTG
Experiment: NMR (15N-HSQC)
Conditions: 200 uM monomer, 50 uM dsDNA (4:1), mixed at 278 K for 60 min, only flexible C-terminal peaks visible in complex; 10 mM sodium phosphate pH 6.0, 10% D2O, 298 K (complex mixed at 278 K for 60 min); recombinant protein; residues 1-99

Does “CATGGTGTTTAGATCTCAATAGTATTTAGTTTAGATGTAGAT (double strand) [42 bp O1-O2 operator DNA]” bind?
Result: binds
